Our source for the log2 fold change values is the supplement of paper PMC10849652.

By UniProt entry, the sequences of proteins in these tests, tags left out. Where a name states a change or a piece, a line headed by the entry shows the natural chain unless it says otherwise.
UniProt P56377: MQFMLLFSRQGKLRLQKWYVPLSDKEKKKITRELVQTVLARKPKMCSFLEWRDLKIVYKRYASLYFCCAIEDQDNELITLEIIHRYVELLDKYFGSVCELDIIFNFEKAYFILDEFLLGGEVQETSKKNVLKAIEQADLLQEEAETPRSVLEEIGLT
UniProt Q9Y673: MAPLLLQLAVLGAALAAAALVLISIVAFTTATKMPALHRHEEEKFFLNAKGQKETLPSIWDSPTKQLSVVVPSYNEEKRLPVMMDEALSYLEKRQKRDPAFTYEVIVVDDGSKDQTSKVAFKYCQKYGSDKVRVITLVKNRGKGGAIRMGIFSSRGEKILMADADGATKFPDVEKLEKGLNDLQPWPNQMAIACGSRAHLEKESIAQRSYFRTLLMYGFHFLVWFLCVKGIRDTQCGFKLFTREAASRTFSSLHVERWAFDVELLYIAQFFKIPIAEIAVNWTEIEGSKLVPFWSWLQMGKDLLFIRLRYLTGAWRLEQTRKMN
UniProt Q8IWZ3: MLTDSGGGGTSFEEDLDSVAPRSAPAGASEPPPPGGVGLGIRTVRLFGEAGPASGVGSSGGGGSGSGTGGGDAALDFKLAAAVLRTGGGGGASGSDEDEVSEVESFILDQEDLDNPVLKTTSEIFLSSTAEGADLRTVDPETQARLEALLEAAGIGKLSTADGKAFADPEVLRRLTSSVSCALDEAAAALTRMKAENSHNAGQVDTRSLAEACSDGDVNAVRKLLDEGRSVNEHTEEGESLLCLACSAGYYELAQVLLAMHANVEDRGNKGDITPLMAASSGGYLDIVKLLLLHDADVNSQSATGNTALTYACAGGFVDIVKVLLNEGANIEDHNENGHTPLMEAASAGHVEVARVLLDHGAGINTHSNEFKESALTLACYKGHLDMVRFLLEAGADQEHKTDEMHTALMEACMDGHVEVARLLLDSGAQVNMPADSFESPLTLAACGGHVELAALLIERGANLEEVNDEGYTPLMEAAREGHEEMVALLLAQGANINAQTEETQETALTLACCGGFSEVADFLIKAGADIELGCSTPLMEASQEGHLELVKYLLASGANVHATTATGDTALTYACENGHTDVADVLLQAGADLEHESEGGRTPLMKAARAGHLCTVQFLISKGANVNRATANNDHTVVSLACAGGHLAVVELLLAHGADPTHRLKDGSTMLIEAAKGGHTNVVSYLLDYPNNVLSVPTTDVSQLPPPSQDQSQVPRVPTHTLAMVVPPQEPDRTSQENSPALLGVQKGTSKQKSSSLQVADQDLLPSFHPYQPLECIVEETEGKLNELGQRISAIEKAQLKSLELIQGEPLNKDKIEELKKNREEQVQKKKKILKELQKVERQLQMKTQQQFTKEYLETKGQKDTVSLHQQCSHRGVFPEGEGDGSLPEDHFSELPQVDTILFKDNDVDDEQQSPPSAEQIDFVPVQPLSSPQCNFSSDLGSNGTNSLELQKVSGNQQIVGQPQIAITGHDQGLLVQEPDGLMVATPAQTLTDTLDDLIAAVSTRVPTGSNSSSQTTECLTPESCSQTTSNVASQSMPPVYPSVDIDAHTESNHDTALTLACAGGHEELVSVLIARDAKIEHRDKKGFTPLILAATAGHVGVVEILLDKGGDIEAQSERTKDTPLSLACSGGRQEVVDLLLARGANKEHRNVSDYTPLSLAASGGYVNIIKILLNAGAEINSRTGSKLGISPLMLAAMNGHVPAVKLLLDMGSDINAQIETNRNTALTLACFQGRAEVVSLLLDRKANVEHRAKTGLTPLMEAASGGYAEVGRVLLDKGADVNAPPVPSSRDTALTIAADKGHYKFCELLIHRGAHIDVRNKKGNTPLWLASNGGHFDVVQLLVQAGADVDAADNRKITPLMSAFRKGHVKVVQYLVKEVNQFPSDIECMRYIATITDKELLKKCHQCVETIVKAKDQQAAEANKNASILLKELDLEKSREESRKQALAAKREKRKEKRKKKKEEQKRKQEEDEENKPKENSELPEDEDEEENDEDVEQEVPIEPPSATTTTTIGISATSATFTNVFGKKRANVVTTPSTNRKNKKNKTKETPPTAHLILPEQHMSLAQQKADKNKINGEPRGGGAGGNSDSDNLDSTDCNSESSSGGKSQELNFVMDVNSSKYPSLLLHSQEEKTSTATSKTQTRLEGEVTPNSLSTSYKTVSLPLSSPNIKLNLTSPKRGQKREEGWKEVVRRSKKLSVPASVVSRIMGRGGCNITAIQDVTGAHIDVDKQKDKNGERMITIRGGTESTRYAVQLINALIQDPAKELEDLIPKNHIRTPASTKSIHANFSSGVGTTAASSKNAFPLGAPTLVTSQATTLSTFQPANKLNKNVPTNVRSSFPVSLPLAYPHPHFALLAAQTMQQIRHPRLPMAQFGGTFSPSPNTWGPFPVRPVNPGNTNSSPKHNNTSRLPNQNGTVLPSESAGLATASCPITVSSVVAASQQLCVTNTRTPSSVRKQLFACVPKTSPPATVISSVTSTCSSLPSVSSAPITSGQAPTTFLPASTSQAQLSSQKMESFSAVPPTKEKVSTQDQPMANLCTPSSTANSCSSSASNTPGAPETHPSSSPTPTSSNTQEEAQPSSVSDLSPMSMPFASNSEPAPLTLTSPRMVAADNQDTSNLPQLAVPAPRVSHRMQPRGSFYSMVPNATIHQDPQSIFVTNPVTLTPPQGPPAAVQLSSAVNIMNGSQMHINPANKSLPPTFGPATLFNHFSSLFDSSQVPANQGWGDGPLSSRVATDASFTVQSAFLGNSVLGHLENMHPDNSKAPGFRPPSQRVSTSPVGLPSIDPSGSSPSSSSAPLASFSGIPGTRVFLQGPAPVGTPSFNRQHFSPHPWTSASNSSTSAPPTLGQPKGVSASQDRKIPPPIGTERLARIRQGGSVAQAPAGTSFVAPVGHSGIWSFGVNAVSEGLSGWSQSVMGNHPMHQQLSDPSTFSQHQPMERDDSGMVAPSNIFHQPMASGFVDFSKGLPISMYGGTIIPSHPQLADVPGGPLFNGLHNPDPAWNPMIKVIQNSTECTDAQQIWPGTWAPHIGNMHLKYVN
UniProt P30038: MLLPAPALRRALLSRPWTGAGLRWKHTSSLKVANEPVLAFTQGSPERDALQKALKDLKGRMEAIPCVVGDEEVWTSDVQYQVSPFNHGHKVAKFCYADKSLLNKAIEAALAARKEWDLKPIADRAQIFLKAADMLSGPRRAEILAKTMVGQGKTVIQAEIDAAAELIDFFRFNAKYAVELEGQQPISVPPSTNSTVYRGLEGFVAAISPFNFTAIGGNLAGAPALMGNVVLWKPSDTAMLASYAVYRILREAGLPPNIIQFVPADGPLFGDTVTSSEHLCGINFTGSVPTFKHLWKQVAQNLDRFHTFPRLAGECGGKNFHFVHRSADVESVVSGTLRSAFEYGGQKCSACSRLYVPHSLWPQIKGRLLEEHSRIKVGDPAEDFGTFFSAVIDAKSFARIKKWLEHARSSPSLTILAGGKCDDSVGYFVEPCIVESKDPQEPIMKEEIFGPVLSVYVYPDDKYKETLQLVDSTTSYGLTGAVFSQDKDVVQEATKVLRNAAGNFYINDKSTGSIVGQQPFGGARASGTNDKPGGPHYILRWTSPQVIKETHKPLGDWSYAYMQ
UniProt P09917: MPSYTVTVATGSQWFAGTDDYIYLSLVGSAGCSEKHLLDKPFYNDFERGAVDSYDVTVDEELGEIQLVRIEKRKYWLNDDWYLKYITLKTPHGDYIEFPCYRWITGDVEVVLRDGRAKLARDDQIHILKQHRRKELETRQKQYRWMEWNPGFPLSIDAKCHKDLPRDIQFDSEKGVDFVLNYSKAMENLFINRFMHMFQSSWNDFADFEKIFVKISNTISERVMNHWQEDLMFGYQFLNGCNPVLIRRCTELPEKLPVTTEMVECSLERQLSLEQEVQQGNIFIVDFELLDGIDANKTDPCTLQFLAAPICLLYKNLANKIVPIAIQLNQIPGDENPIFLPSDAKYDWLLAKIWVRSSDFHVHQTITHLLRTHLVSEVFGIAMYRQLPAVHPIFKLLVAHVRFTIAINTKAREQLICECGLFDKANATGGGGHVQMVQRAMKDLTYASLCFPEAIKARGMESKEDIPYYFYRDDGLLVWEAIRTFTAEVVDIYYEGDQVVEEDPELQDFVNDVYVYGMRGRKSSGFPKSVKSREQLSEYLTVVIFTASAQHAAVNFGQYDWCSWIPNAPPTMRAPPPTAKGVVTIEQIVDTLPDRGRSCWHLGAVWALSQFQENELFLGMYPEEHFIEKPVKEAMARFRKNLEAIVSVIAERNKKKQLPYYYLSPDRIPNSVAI
UniProt Q86W74: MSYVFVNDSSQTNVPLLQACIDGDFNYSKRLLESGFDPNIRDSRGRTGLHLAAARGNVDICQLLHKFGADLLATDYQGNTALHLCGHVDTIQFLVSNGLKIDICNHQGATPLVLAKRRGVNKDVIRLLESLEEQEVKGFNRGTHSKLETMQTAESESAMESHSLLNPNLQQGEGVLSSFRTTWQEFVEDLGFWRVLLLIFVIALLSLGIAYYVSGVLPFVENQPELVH

The other results are listed elsewhere or left out.

Holding throughout (assay): log2 fold change, soluble protein after heating vs DMSO (PISA); higher = thermal stabilisation; K562 lysate, 10 uM; active = over 0.2 and 3.5 SD of the protein, either way, in both replicates (recomputed)
Compound in test [1]: C=CC(=O)N1CCC[C@@H](n2nc(-c3ccc(Oc4ccccc4)cc3)c3c(N)ncnc32)C1 [ibrutinib]
Summed up: (§1)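 Quantification was by TMTpro 16plex LC-MS/MS with equalised channel sums, applied to the supernatant after 21,000xg for 90 min. Samples were crude K562 extract at 1 mg/mL protein in PBS pH 7.4 with 1 mM MgCl2, treated with 10 μM compound for 30 min, heated for 3 min across 48°C-58°C, pooled and brought to 0.5% NP-40 at 4°C. Values are log-two fold changes in thermal stability relative to solvent controls, from duplicates.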

Compound in test [2]: CC(=O)c1cnc2ccc(-c3cc(Cl)c(O)c(Cl)c3)nc2c1N[C@H]1CC[C@H](CN(C)C)CC1
Summed up: as §1

Compound in test [3]: CC(C)(C)Cn1c(N)nc2ccc(-c3[nH]c(C(C)(C)C)nc3-c3ccc(F)cc3)nc21 [ralimetinib]
Summed up: as §1

Compound in test [4]: CC(C)(O)CC(=O)NCCn1ccc2ncnc(Nc3ccc(Oc4cccc(C(F)(F)F)c4)c(Cl)c3)c21
The essentials: as §1

Compound in test [5]: CC(C)C1=C2N=C(C=C(N2N=C1)NCC3=CC=CC=C3)NCCCCCCN
Summed up: as §1

Compound in test [6]: CC1=C(C(CC(=O)N1)C2=CC=C(C=C2)C(F)(F)F)C(=O)NC3=C(C=C4C(=C3)C=NN4)F
The essentials: as §1

Compound in test [7]: CC1=C(C=C(C=C1)NC(=O)C2=CC(=CC=C2)C(C)(C)C#N)NC3=CC4=C(C=C3)N=CN(C4=O)C
The essentials: as §1

Compound in test [8]: CC1=C(C=C(C=C1)NC(=O)C2=CC(=CC=C2)N(C)C)NC(=O)C3=CC=C(C=C3)O
Summed up: as §1

Compound in test [9]: CC1=CC=C(C=C1)SC2=C3C=C(SC3=CN=C2)C(=O)N
Summed up: as §1

Compound in test [10]: CCCS(=O)(=O)Nc1ccc(F)c(C(=O)c2c[nH]c3ncc(-c4ccc(Cl)cc4)cc23)c1F [vemurafenib]
The essentials:
as §1

Compound in test [11]: CCCS(=O)(=O)Nc1ccc(F)c(C(=O)c2c[nH]c3ncc(Cl)cc23)c1F
The essentials:
as §1

Compound in test [12]: CCN(CCCOc1ccc2c(Nc3cc(CC(=O)Nc4cccc(F)c4)[nH]n3)ncnc2c1)CCOP(=O)(O)O [barasertib]
Summed up:
as §1

Compound in test [13]: CC[C@@H]1C(=O)N(C)c2cnc(Nc3ccc(C(=O)NC4CCN(C)CC4)cc3OC)nc2N1C1CCCC1
The essentials:
as §1

Compound in test [14]: CC[C@@H]1C(=O)N(C)c2cnc(Nc3ccc(C(=O)N[C@H]4CC[C@H](N5CCN(CC6CC6)CC5)CC4)cc3OC)nc2N1C(C)C [volasertib]
The essentials: as §1

Compound in test [15]: CCn1c(C(=O)N(C2CC2)C2CC2)cc2c3c(ncn3C)c(Nc3cc(C)n(C)n3)nc21
Summed up:
as §1

Compound in test [16]: CCn1cc(-c2ccnc3[nH]c(-c4cccc(CN(C)C)c4)cc23)c(-c2ccc(NC(=O)N(C)C)cc2)n1
Summed up: as §1

Compound in test [17]: CN1CCC(CNc2ccc3ncc(-c4cccc(OC(F)(F)F)c4)n3n2)CC1
The essentials:
as §1

Compound in test [18]: CN1CCN(c2nc(C3=C(c4c[nH]c5ccccc45)C(=O)NC3=O)c3ccccc3n2)CC1 [sotrastaurin]
Summed up:
as §1

Compound in test [19]: CC1=C(C2=C(C=C1)C(=O)C3=CC=CC=C3N2CCCN)C
The essentials: as §1

Compound in test [20]: CN1CCN(CCOc2cc(OC3CCOCC3)c3c(Nc4c(Cl)ccc5c4OCO5)ncnc3c2)CC1 [saracatinib]
Summed up: as §1

For the target AP1S2 (UniProt P56377), the log2 fold change is inactive: 0.018 in test [1]; inactive: -0.006 in test [2]; inactive: -0.039 in test [3]; inactive: -0.086 in test [4]; inactive: 0.092 in test [5]; inactive: 0.105 in test [6]. In addition, the log2 fold change in test [7] is inactive: 0.04; in [8], inactive: 0.056; in test [9], inactive: 0.048; in test [10], inactive: -0.033; in test [11] it was inactive: 0.069; in test [12] it was inactive: 0.158. For the same target, the log2 fold change in test [13] is inactive: -0.239; in [14], inactive: 0.009; in test [15], inactive: 0.104; in [16], inactive: 0.223; in test [17], inactive: -0.287; in test [18], inactive: -0.029.
With ANXA2 (UniProt H0YL33), the log2 fold change was inactive: 0.235 in test [1]; inactive: -0.167 in test [2]; inactive: -0.076 in [3]; inactive: 0.129 in test [4]; inactive: -0.353 in test [5]; inactive: 0.033 in test [6]. Further, the log2 fold change in test [19] was inactive: 0.025; in test [7] it was inactive: -0.211; in [8] it was inactive: 0.005; in [9] it was inactive: -0.144; in test [11], inactive: 0.012; in [12] it was inactive: 0.37. The log2 fold change in [14] was inactive: 0.136; in [15] it was inactive: 0.012; in test [16] it was active: 0.643; in [17], inactive: -0.416; in test [20] it was inactive: 0.088; in test [18] it was inactive: 0.214.
In the case of AP1S2 isoform 2 (UniProt P56377), the log2 fold change was inactive: -0.052 in test [1]; inactive: -0.005 in [2]; inactive: 0.058 in test [3]; inactive: 0.07 in test [4]; inactive: -0.041 in [5]; inactive: -0.034 in test [6]. Moreover, the log2 fold change in test [19] is inactive: 0; in [7], inactive: 0.043; in test [8], inactive: -0.008; in [9], inactive: -0.017; in test [10] it was inactive: -0.083; in [11], inactive: 0.006. Besides, the log2 fold change in [12] was inactive: 0.014; in [13], inactive: -0.13; in test [14], inactive: 0.008; in [15] it was inactive: 0.035; in [16] it was inactive: -0.321; in test [17], inactive: 0.184. For the same target, the log2 fold change in [20] is inactive: 0.055; in [18], inactive: 0.056.
On to ALG5 (UniProt Q9Y673), for which the log2 fold change in test [1] was inactive: 0.02; in [2] it was inactive: 0.01; in test [3], inactive: -0.04; in test [4] it was inactive: 0.048; in test [5] it was inactive: -0.001; in [6], inactive: -0.001. Also, the log2 fold change in test [19] was inactive: 0.042; in test [7] it was inactive: 0.025; in [8] it was inactive: 0.023; in [9], inactive: 0.014; in test [10] it was inactive: 0.028; in test [11], inactive: 0.011. Moreover, the log2 fold change was inactive: -0.059 in test [12]; inactive: -0.019 in [13]; inactive: -0.021 in test [14]; inactive: 0.037 in test [15]; inactive: -0.054 in test [16]; inactive: -0.008 in test [17]. Besides, the results for the log2 fold change in test [20] and in [18] were inactive: 0.079 and inactive: 0.004, respectively.
Turning to ANKHD1 isoform 6 (UniProt Q8IWZ3), the log2 fold change is inactive: 0.009 in test [1]; inactive: -0.003 in test [2]; inactive: 0.01 in test [3]; inactive: -0.018 in test [4]; inactive: 0.006 in test [5]; inactive: 0.025 in [6]. Also, the log2 fold change is inactive: -0.023 in [19]; inactive: -0.071 in test [7]; inactive: 0.018 in [8]; inactive: 0 in test [9]; inactive: 0.019 in [10]; inactive: 0.043 in [11]. The log2 fold change in test [12] is inactive: 0.04; in [13] it was inactive: -0.011; in test [14], inactive: -0.04; in test [15] it was inactive: 0.015; in test [16] it was inactive: -0.126; in test [17], inactive: 0.105. Besides, the log2 fold change was inactive: 0.025 in test [20] and inactive: 0.03 in test [18].
In the case of ALDH4A1 (UniProt P30038), the log2 fold change in test [1] is inactive: 0.064; in test [2] it was inactive: 0.024; in test [3], inactive: 0.09; in test [4], inactive: -0.011; in test [5] it was inactive: -0.061; in [6], inactive: -0.014. For the same target, the log2 fold change in test [19] is inactive: -0.088; in [7], inactive: -0.043; in test [8], inactive: 0.054; in [9], inactive: 0; in [10] it was inactive: -0.042; in test [11] it was inactive: 0.02. Moreover, the log2 fold change in test [12] was inactive: -0.021; in test [13], inactive: 0.008; in test [14], inactive: -0.092; in test [15], inactive: -0.006; in test [16] it was inactive: -0.023; in [17] it was inactive: -0.029. Also, the log2 fold change was inactive: -0.098 in [20] and inactive: 0.051 in test [18].
With AKT1S1 (UniProt M0R2V8), the log2 fold change is inactive: -0.041 in test [2]; inactive: -0.106 in test [6]; inactive: 0.027 in test [9]; inactive: -0.044 in [11]; inactive: 0.022 in test [14].
Consider ALOX5 (UniProt P09917), for which the values for the log2 fold change in [16] and in [17] were inactive: 0.092 and inactive: 0.215, respectively.
On to ANKRD46 (UniProt Q86W74), for which the log2 fold change was inactive: -0.061 in test [3]; inactive: -0.045 in [4]; inactive: 0.015 in test [5]; inactive: 0.017 in [19]; inactive: -0.016 in test [7]; inactive: 0.081 in test [8]. The log2 fold change was inactive: 0.103 in test [10]; inactive: 0.018 in [15]; inactive: -0.237 in [16]; inactive: -0.058 in [17]; inactive: 0.029 in test [20]; inactive: -0.148 in test [18].
